# Results as given in the supplement of paper PMC11732987, “Enantioselective OTUD7B fragment discovery through chemoproteomics screening and high-throughput optimisation” (Communications Chemistry, 2025).
# Chains of the proteins cited; added tags and fusions are not shown. Lines headed by an entry give the natural chain unless they say otherwise; changes in a name come on top. Residues count along the entry.
# UniProt O95671, 542-564: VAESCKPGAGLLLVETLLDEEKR
# UniProt P10398: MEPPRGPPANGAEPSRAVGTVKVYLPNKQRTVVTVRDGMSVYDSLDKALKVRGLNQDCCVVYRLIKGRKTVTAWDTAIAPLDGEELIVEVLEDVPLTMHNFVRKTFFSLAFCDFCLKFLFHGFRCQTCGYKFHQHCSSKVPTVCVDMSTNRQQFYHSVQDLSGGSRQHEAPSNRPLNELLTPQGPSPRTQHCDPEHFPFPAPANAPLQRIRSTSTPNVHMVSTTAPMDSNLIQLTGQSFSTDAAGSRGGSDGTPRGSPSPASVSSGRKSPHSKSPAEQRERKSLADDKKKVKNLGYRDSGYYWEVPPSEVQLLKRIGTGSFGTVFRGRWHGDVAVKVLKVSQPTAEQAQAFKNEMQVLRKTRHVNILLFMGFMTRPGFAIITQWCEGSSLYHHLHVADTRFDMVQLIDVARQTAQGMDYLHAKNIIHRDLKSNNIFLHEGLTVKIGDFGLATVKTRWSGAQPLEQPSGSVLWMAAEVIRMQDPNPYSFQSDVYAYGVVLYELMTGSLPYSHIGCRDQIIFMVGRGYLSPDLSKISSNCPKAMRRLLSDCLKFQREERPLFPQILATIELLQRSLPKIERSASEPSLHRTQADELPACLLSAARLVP
# UniProt P49407: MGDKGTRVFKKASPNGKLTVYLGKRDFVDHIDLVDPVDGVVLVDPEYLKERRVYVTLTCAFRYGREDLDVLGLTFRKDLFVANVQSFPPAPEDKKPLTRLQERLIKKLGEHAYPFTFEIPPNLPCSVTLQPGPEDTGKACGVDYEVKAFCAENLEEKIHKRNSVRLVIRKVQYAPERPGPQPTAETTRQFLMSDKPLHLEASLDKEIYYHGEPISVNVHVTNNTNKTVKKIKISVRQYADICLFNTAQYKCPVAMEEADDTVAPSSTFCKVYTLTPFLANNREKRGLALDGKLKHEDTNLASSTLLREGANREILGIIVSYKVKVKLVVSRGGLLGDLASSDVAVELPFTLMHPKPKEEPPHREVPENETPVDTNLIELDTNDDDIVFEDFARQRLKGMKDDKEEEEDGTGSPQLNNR
# UniProt Q68EM7, 93-117: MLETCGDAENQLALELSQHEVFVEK
# UniProt Q9BZZ5: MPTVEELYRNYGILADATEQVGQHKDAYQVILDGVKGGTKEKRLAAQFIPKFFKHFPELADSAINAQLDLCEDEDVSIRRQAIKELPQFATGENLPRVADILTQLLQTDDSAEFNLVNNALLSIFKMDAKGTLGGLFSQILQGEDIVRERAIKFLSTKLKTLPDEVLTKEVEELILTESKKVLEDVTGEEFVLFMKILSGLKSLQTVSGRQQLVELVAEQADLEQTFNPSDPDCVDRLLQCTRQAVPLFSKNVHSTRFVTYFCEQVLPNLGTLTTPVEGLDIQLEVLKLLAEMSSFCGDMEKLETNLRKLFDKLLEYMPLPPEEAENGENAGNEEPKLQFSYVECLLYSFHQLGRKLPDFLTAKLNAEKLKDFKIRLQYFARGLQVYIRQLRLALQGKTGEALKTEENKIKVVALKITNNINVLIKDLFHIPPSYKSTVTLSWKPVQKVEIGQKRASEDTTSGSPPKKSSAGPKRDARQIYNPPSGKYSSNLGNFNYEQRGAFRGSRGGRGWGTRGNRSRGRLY
# UniProt O14497: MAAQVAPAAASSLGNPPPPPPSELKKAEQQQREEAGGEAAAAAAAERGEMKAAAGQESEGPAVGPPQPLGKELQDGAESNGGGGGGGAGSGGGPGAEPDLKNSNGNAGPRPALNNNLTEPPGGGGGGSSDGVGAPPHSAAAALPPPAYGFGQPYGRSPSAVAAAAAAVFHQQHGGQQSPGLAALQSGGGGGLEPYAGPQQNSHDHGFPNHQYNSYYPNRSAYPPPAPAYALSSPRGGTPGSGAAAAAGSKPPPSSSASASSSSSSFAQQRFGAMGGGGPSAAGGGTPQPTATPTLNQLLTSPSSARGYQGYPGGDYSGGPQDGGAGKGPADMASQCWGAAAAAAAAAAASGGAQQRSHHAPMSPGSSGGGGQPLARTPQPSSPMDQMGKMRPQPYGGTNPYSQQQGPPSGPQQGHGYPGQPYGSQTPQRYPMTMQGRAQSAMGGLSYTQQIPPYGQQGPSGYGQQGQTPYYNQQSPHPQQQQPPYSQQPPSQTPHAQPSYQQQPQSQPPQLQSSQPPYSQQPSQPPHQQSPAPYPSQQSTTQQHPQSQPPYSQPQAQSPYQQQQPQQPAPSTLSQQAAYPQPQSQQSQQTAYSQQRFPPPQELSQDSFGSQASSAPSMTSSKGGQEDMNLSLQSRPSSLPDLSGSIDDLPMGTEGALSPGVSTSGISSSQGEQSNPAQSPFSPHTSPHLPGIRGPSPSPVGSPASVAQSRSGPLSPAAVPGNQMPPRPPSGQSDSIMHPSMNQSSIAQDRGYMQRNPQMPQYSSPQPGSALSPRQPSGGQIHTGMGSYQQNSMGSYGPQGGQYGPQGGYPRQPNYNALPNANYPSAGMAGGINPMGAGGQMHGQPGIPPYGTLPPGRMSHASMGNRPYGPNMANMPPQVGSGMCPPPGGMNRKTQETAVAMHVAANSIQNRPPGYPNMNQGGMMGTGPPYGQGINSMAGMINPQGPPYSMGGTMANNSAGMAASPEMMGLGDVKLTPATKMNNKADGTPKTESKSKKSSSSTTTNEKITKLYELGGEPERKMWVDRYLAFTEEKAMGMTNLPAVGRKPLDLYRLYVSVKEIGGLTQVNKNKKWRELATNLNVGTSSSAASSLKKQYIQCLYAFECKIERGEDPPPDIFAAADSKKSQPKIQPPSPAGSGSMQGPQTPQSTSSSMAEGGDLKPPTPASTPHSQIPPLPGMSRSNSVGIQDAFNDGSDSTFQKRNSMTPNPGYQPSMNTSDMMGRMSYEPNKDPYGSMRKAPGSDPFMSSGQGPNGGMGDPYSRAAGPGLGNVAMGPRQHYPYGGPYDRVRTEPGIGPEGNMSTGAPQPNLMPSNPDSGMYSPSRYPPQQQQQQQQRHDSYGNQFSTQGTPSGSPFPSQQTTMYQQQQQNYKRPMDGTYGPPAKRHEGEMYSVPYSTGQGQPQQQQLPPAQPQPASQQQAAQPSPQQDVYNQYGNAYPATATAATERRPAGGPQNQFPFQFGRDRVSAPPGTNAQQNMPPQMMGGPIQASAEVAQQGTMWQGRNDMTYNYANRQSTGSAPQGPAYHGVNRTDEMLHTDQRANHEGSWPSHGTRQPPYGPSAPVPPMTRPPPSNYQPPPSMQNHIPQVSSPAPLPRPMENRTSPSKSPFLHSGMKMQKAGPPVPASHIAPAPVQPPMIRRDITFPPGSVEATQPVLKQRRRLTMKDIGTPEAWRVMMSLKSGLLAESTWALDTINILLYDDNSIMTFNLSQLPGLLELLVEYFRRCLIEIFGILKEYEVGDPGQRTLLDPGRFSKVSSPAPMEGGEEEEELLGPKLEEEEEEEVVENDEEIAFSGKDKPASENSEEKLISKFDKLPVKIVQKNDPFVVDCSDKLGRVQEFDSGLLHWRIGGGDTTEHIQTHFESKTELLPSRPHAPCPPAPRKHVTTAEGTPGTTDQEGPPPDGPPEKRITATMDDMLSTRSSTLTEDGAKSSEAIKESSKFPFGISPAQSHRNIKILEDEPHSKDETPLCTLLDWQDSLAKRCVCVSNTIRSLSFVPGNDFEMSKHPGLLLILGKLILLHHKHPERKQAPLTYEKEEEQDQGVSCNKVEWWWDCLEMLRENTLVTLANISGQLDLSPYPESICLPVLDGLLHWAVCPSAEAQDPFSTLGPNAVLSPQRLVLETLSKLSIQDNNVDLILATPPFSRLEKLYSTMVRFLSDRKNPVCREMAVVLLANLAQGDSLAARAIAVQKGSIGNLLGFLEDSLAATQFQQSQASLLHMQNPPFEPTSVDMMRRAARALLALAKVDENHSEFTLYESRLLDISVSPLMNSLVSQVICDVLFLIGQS
# UniProt P27540: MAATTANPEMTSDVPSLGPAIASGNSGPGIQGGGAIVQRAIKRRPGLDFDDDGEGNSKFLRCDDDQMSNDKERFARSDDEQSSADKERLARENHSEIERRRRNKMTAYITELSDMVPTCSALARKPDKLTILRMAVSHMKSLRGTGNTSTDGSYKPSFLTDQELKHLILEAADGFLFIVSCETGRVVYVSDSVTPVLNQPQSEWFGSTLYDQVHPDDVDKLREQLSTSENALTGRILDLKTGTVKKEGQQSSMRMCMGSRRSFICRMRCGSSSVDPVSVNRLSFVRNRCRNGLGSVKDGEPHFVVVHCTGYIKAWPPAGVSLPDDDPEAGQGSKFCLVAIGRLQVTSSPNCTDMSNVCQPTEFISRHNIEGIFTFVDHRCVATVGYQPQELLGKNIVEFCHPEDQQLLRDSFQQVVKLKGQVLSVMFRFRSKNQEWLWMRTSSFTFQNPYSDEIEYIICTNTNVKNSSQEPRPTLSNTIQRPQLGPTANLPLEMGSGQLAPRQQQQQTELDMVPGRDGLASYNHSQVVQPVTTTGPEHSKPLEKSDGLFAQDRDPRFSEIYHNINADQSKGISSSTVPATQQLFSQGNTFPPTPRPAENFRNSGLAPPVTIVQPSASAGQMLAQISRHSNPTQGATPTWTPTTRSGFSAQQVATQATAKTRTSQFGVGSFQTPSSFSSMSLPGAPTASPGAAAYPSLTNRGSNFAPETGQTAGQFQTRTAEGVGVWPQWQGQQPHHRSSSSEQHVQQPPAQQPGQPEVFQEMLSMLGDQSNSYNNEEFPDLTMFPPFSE
# UniProt Q9Y2T2: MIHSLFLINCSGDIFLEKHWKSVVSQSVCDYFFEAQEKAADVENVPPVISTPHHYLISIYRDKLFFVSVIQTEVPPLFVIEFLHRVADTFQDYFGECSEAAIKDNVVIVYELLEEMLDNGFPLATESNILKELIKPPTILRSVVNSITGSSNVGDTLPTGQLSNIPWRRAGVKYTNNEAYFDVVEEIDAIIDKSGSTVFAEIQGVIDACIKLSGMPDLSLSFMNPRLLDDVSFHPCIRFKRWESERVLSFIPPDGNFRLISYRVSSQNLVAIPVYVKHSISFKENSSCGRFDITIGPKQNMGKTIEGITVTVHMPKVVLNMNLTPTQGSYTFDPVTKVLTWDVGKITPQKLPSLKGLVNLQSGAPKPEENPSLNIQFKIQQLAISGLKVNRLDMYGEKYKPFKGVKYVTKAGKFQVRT
# UniProt O14617, 190-212: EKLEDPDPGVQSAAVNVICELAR
# UniProt Q6NXT1, 114-144: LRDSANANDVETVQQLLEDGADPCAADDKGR
# UniProt Q6P6B7: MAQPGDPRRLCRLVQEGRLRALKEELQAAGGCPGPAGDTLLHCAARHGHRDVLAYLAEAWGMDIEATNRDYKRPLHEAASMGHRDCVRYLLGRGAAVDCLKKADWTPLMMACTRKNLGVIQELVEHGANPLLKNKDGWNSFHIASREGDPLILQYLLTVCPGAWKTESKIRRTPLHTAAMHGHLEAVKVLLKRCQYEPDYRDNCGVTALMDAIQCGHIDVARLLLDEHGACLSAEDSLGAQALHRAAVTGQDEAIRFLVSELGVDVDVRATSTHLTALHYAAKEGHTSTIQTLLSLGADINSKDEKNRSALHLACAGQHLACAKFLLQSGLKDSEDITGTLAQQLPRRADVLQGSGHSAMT
# UniProt O00192: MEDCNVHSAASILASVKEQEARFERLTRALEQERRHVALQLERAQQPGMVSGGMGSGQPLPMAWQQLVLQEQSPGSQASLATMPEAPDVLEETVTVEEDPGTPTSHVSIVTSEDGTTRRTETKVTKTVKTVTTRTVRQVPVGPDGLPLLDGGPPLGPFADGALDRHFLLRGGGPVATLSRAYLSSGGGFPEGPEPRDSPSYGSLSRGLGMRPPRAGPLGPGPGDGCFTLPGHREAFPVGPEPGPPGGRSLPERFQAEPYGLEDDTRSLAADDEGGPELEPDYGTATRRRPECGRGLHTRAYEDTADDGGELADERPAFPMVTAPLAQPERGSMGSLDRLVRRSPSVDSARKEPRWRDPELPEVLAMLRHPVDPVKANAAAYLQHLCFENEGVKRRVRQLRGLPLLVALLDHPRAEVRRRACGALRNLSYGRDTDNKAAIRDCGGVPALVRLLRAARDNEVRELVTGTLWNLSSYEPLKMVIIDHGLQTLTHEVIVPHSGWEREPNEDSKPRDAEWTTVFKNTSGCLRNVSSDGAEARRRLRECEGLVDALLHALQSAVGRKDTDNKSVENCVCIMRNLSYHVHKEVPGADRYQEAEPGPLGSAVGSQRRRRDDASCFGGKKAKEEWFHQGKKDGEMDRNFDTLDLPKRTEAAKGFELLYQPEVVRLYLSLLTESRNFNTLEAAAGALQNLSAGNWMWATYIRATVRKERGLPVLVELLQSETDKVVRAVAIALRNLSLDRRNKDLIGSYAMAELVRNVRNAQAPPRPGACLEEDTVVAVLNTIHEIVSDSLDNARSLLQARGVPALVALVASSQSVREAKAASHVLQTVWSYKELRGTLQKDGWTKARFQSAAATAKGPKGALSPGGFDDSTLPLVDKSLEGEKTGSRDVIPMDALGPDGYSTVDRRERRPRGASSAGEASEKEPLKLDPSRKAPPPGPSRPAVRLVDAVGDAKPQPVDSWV
# Some of the results follow. The data scatter; read single values as rough.
# What was measured:
# [1] = compound: ClCC(=O)N[C@@H]1CCCc2ccccc12; assay: log2 mean competition ratio of IA-DTB cysteine labelling (DMSO/compound) (log2 ratio); higher = stronger cysteine engagement by compound; settings: treatment time: 4 h, cell line lysate: HEK293T
# Description: (§1)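 IA-DTB competitive cysteine chemoproteomics in HEK293T RIPA lysate. Lysates were treated with compound 29 or 30 at 50 or 200 µM for 4 h, then IA-DTB (500 µM, 1 h), trypsin-digested, NeutrAvidin-enriched and analysed by diaPASEF. Competition ratio = intensity DMSO / intensity compound (n=4 treated, n=64 DMSO); binding: mean log2 CR ≥ 1 and p ≤ 0.05 plus QC filters. Target is the cysteine site.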
# [2] = compound: ClCC(=O)N[C@H]1CCCc2ccccc12; assay: as above; settings: treatment time: 4 h, cell line lysate: HEK293T
# Description: as §1
Target,log2 mean competition ratio ([1]; 50 µM),log2 mean competition ratio ([1]; 200 µM),log2 mean competition ratio ([2]; 50 µM),log2 mean competition ratio ([2]; 200 µM)
ASMTL C546 (UniProt O95671),0.607,0.338,0.292,0.102
ARAF C538 (UniProt P10398),0.0346,0.354,0.0218,0.16
AQR C997 (UniProt O60306),0.275,-0.0118,-0.363,-0.237
ANKS1A C965 (UniProt Q92625),-0.198,-0.0902,-0.157,0.0915
ARRB1 C140 (UniProt P49407),-0.312,-0.257,0.058,-0.126
ARPC1A C279 (UniProt Q92747),0.474,-0.235,0.491,-0.261
ARHGAP17 C97 (UniProt Q68EM7),-0.327,-0.187,-0.168,-0.277
ARFGEF2 C90 (UniProt Q9Y6D5),0.139,0.11,0.184,0.123
API5 C297 (UniProt Q9BZZ5),-0.0828,-0.207,0.12,-0.512
ARHGEF6 C418 (UniProt Q15052),-0.0718,-0.0239,-0.197,-0.0972
ARHGAP11A C451 (UniProt Q6P4F7),0.0293,0.265,0.375,0.243
ARHGEF7 C448 (UniProt Q14155),-0.301,-0.287,-0.215,-0.328
ARID1A C1827 (UniProt O14497),-0.0641,0.19,-0.228,0.165
ARID5B C393,0.298,0.33,0.104,0.192
AP3B1 C507 (UniProt O00203),-0.148,0.167,0.271,0.212
ARNT C269 (UniProt P27540),-0.179,0.0264,-0.209,-0.0494
AP3M1 C236 (UniProt Q9Y2T2),-0.0836,0.131,-0.493,0.106
AP3D1 C208 (UniProt O14617),-0.192,-0.0424,-0.19,-0.126
ANKRD11 C646 (UniProt Q6UB99),0.0958,0.161,-0.591,-0.104
ANKRD54 C137 (UniProt Q6NXT1),-0.293,-0.105,-0.402,-0.284
ANKRD16 C194 (UniProt Q6P6B7),0.244,-0.112,0.336,0.0582
AQR C1245 (UniProt O60306),0.152,-0.24,-0.0879,-0.325
ARMCX3 C52 (UniProt Q9UH62),-0.546,-0.245,-0.387,0.52
ARVCF C226 (UniProt O00192),0.124,0.365,-0.476,0.244

# Two entries drawn at random from the list so far, as already listed:
Target,log2 mean competition ratio ([1]; 50 µM),log2 mean competition ratio ([1]; 200 µM),log2 mean competition ratio ([2]; 50 µM),log2 mean competition ratio ([2]; 200 µM)
ANKRD54 C137 (UniProt Q6NXT1),-0.293,-0.105,-0.402,-0.284
API5 C297 (UniProt Q9BZZ5),-0.0828,-0.207,0.12,-0.512
